This assay in a line: qHTS Assay for Lipid Storage Modulators in Drosophila S3 Cells.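 As to cell number change: cells counted by Cell Tracker Red CMTPX staining in the red channel.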 The following applies: BODIPY lipid droplet fluorescence, 18-24 h; for cell number change: measured here: cell count max response, cells fed with added oleic acid. The method in brief:
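Drosophila S3 cells loaded with oleic acid (400 uM, as added) and compounds at several concentrations; lipid droplets imaged by 488-nm laser-scanning cytometry, 500–530 nm intensity and object ratio to cell channel. Percent activity normalized to 20 uM Triacsin C.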

[1] abbreviates: measured here: cell number channel AC50, cells fed with added oleic acid.
Where [2] appears, read: measured here: lipid fluorescence (Fed channel) AC50, cells fed with added oleic acid.

The other results are listed elsewhere or left out. The main result of the screen is listed elsewhere. These columns were measured beside it and carry no call. The list favours compounds with an active or inconclusive main result. Potencies come from curve fits of mixed quality, noted in brackets.

For `CCOC(=O)N1CCN(S(=O)(=O)c2ccc(C(=O)N(CCCN(C)C)c3nc4ccc(Cl)cc4s3)cc2)CC1`, the cell number change was found to be 15.1%. Besides, under setting [1], the AC50 was 0.58 µM [rising, single point].

Turning to `CCOC(=O)Nc1nc2ccccc2s1`, the cell number change came to 2.21%. The AC50 under setting [1] was 6.51 µM [falling, single point]. In addition, under setting [2], the AC50 is 14.6 µM [falling, partial curve].

For the compound `CC(C)c1ccc(NC(=O)CCCN2C(=O)NC(C)(C)C2=O)cc1`, the cell number change is 1.44%. Under setting [2], the AC50 was 0.651 µM [rising, partial curve].

Consider `COc1ccccc1CCN=C(N)NS(=O)(=O)c1ccccc1F`, for which the cell number change was determined as 14.2%. Also, the AC50 under setting [2] was 18.4 µM [rising, single point].

`O=C(O)c1cc(N/N=C/c2ccc(OCc3ccccc3)cc2)ccc1Cl`: the cell number change was -21.9%. The AC50 under setting [2] is 0.58 µM [falling, full curve].

Regarding `O=C(NCC(=O)N1CCCCCC1)c1ccc(Br)cc1`, the cell number change is -0.829%. Under setting [2], the concentration at half-maximal activity (AC50) is 6.51 µM [rising, single point].

For the compound `Cn1cc(Br)c(C(=O)N2CCc3ccccc32)n1`, the cell number change stood at 25.2%. The AC50 under setting [2] was 13 µM [rising, partial curve].

Turning to `COc1ccc2c(c1)C(C)=CC(C)(C)N2C(=O)CNCc1ccc2c(c1)OCO2`, the cell number change was -38.5%. Besides, under setting [1], the AC50 was 9.2 µM [falling, partial curve]. Also, under setting [2], the AC50 was 29.1 µM [falling, single point].

For the compound `O=C(COC(=O)c1cc(Br)ccc1O)NCC1CCCO1` (configuration not stated), the cell number change is -17.7%.

Regarding `COCCNC(=O)c1ccc2c(c1)S(=O)(=O)c1cc(Cl)ccc1C2=O`, the half-maximal activity concentration (AC50) under setting [2] was 5.17 µM [falling, full curve].

`C=CCOC(=O)C1=C(C)NC2(O)c3ccccc3C(=O)C12O` (configuration not stated): the cell number change came out at 0.517%. For the same compound, the AC50 under setting [2] is 0.58 µM [falling, full curve].

Consider `Cc1cc(O)ccc1-c1cnc2ccccc2n1`, for which the cell number change was -25%. Also, the AC50 under setting [2] was 0.0517 µM [falling, full curve, poor fit].

Turning to `COC(=O)c1ccc(N2CCOCC2)c(NC(=O)c2cccs2)c1`, the cell number change came out at 30.8%.

In the case of `CCc1cc(Cn2nc(-c3ccccc3)cc2C(=O)NCCOC)on1`, the half-maximal activity concentration (AC50) under setting [2] was 29.1 µM [rising, single point].

Consider `COc1cc(NC(=O)C2CCCCC2)c(OC)cc1NC(=O)CN1CCCCC1`, for which the cell number change is 9.4%.

Take `CCCCn1c(N)c(N(CC(C)C)C(=O)c2oc3ccc(Br)cc3c2C)c(=O)[nH]c1=O`: the cell number change was determined as 22.9%. Under setting [2], the AC50 was 29.1 µM [rising, single point].

For the compound `O=C(O)c1ccc(NC(CSCc2ccccc2F)C(=O)O)c([N+](=O)[O-])c1` (configuration not stated), the cell number change is -10.4%. The AC50 under setting [2] is 0.00517 µM [falling, full curve, poor fit].

In the case of `Nc1nonc1C(=O)NCCNC(=O)c1cccc(Cl)c1`, the cell number change stood at 4.62%. Moreover, the AC50 under setting [2] was 4.11 µM [falling, single point].

For the compound `Cc1cccc([C@@H](NC(=O)OC(C)(C)C)C(=O)OC(C)(C)C)c1`, the cell number change was -0.712%. Moreover, the AC50 under setting [2] was 0.116 µM [rising, full curve, poor fit].

In the case of `Cc1cc(CN2CCOCC2)c(O)c(C2(C)CCCCC2)c1`, the cell number change was -53.2%. The half-maximal activity concentration (AC50) under setting [1] was 29.1 µM [falling, single point]. Further, the AC50 under setting [2] was 32.6 µM [falling, single point].

As to `CC(/C=C/c1ccccc1)=N\NC(N)=S`, the cell number change was -13.5%.

In the case of `O=C(COC(=O)c1ccc2c(c1)OCO2)Nc1nc(-c2ccccc2)cs1`, the cell number change is -14.6%. The concentration at half-maximal activity (AC50) under setting [2] was 29.1 µM [falling, single point].

Turning to `COc1ccccc1N1CCN(c2nc(C)nc3c2oc2ccccc23)CC1`, the cell number change is -19.9%.

Turning to `O=C(CCN1CCc2ccccc2C1)c1ccc2c(c1)OCCO2`, the cell number change is -75.8%. The AC50 under setting [1] is 18.4 µM [falling, partial curve]. Also, the half-maximal activity concentration (AC50) under setting [2] was 29.1 µM [falling, single point].

For the compound `CCNc1nc2c(c(=O)[nH]c(=O)n2C)n1CC(C)C`, the cell number change was -71%. Further, the AC50 under setting [1] was 2.91 µM [falling, full curve]. The AC50 under setting [2] is 3.66 µM [falling, partial curve].

Consider `O=C(NC1CC1)c1sc2cc(F)ccc2c1Cl`, for which the cell number change was -7.43%. Further, the AC50 under setting [2] was 0.731 µM [falling, single point].

Regarding `Cc1ccc(OCC(O)CNCc2ccc(F)cc2)cc1` (configuration not stated), the cell number change was 19.7%.

As for `CCOC(=O)N1CCC(NC(=O)CSCc2nc(-c3cccc(OC)c3)oc2C)CC1`, the AC50 under setting [1] is 2.31 µM [rising, partial curve].

For the compound `Cc1ccc(NC(=S)N/N=C/c2c(C)nn(-c3ccccc3)c2N2CCCC2)cc1`, the cell number change is 12.2%. Also, the half-maximal activity concentration (AC50) under setting [2] is 0.731 µM [rising, partial curve, poor fit].

For `CN(C)C(=O)c1ccc(-c2cc(C(F)(F)F)nn2C)s1`, the cell number change was -30.8%.

With `Cc1cccc(NC(=S)NC(NC(=O)c2ccco2)C(Cl)(Cl)Cl)c1` (configuration not stated), the cell number change is -23.4%. Under setting [2], the concentration at half-maximal activity (AC50) is 4.11 µM [falling, partial curve].

Take `CCNC(=S)N1CCN(S(=O)(=O)c2cccc(C(F)(F)F)c2)CC1`: the cell number change was 8.92%. The AC50 under setting [1] is 2.59 µM [rising, single point]. Under setting [2], the AC50 was 29.1 µM [falling, single point].

For `Cc1ccc(NC(=O)COc2ccc(-c3nnco3)cc2)cc1S(=O)(=O)N1CCOCC1`, the cell number change is 20.8%. Further, the AC50 under setting [2] was 3.26 µM [rising, partial curve].

For `Cc1ccc(C2=CSC3=NCCN23)c(C)c1`, the cell number change is -14.6%. Also, the AC50 under setting [2] is 0.013 µM [falling, full curve].

Take `CC12C(=O)N(c3nccs3)C(=O)C1C1C=CC2C1` (configuration not stated): the cell number change is -33.2%. In addition, under setting [1], the AC50 was 29.1 µM [falling, single point]. The AC50 under setting [2] is 29.1 µM [falling, single point].

For `CC(C)C(=O)Nc1nnc(SCC(=O)NCc2ccc3c(c2)OCO3)s1`, the cell number change came out at 7.14%. In addition, under setting [1], the half-maximal activity concentration (AC50) is 0.146 µM [falling, full curve, poor fit]. Moreover, under setting [2], the AC50 is 0.146 µM [falling, full curve, poor fit].

For `O=P1(Nn2cnnc2)C=C(c2ccccc2)OC(c2ccccc2)=C1`, the cell number change came out at 33.4%. Also, the half-maximal activity concentration (AC50) under setting [2] was 29.1 µM [rising, single point].

As for `COc1ccccc1C(=O)NC(=S)Nc1ccc(N2CCN(C(=O)c3ccco3)CC2)cc1`, the cell number change was -36.1%. Besides, under setting [1], the AC50 was 7.31 µM [falling, partial curve]. Besides, the AC50 under setting [2] was 3.66 µM [falling, single point].

On to `CCCn1c(=S)[nH]c2cc(OC)c(OC)cc2c1=O`, for which the half-maximal activity concentration (AC50) under setting [1] is 0.259 µM [rising, partial curve, poor fit] and the AC50 under setting [2] is 23.1 µM [rising, partial curve, poor fit].

The values are drawn from PubChem BioAssay AID2685 (National Center for Advancing Translational Sciences (NCATS), 2010).
